Assay results reported in patent US20200181248A1 (Chugai, published 2020).
These are yes or no findings as the source states them, for the method shown. Some entries that bind do so weakly or less than the wild type.

The chains behind the UniProt entries cited, without tags or fusion partners. Where a name states a change or a piece, a line headed by the entry shows the natural chain unless it says otherwise.
UniProt P51654: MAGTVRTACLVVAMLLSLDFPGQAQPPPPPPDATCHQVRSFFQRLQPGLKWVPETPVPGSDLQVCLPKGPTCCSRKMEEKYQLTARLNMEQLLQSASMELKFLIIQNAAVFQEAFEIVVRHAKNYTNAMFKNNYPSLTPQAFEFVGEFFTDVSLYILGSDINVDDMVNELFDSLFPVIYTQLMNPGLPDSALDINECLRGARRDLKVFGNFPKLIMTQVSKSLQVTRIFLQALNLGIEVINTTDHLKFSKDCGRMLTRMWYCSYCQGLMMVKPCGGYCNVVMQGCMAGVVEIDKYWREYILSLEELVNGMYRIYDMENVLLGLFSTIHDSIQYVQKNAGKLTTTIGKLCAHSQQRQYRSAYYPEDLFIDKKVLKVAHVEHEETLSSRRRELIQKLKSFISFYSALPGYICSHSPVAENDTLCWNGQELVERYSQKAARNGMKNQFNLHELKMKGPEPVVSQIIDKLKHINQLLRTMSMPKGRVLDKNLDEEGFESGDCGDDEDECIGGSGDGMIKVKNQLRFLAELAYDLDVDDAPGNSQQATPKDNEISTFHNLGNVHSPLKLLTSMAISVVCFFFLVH

What was measured:
[1] = molecular target: soluble form of the human GPC3 core protein (Ser 495 and Ser 509 substituted with Ala, His tag at the C terminus) (human) (UniProt P51654); assay: ELISA screening of hybridoma supernatants on GPC3 core protein
[2] = molecular target: soluble form of the human GPC3 core protein (Ser 495 and Ser 509 substituted with Ala, His tag at the C terminus) (human) (UniProt P51654); assay: western blotting of the soluble GPC3 core protein (band of 40 kDa)
[3] = molecular target: secreted form of GPC3 (in the culture supernatant of HepG2 and in the plasma/serum of mice transplanted with HepG2) (human) (UniProt P51654); assay: sandwich ELISA, combinations M6B1-M18D4 and M19B11-M18D4
[4] = molecular target: secreted form of GPC3 (in the culture supernatant of HepG2 and in the plasma/serum of mice transplanted with HepG2) (human) (UniProt P51654); assay: sandwich ELISA; biotin-labeled M18D4 as detecting antibody

Measured: binding

B1: M18D4 (antibody, human IgG1, kappa, V domains shown)
VH: EVQLQQSGTVLARPGASVKMSCKASGYTFTGYWMRWVKQRPGQGLEWIGAIYPGNSDTTYNQKFKGKAKLTAVTSVSTAYMELSSLTNEDSAVYYCSRSGDLTGGFAYWGQGTLVTVST
VL: DIVMTQAAFSNPVTLGTSTSISCRSSKSLLHSNGITYLYWYLQKPGQSPQLLIYQMSNLASGVPDRFSSSGSGTDFTLRISRVEAEDVGVYYCAQNLELPYTFGSGTKLEIKR
binds: all assays above
